Laboratory results: PubChem BioAssay (NCATS)
Inconclusive means that the source gave no clear call. Such entries were picked first, then a sample of the others. A potency beside an inconclusive call is a rough fit, not a confirmed value. Active and inactive are the calls of the source. Calls come from the whole dose curve; as a rule, active = well fitted cell-killing curve with a large enough effect; inconclusive = small, poorly fitted or top-dose-only effect, or effect the other way; inactive = no such curve, though single readings can be large or run the other way.

Columns and labels:
[1] = Quantitative High-Throughput drug screen in 47 multiple myeloma cell lines against the NCATS MIPE library collection: JJN3_DSMZ cell viability assay (AID 1918966; note: nearly all actives have a fitted effect of over 50% in size)
Summary of the method: (§1)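 Viability readout: CellTiter-Glo luminescence following 5 min room-temperature incubation with reagent. Prior exposure: 48 h, 37C, humidified 5% CO2, 500 cells per well.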

[2] = Quantitative High-Throughput drug screen in 47 multiple myeloma cell lines against the NCATS MIPE library collection: H1112_PLB cell viability assay (AID 1918967; note: nearly all actives have a fitted effect of over 30% in size); conditions: H1112 myeloma cells viability, ATP luminescence, 48 h; viability: at 45.8 µM (top of the series)
Summary of the method: as §1

[3] = Quantitative High-Throughput drug screen in 47 multiple myeloma cell lines against the NCATS MIPE library collection: Karpas25_ECACC cell viability assay (AID 1918968; note: nearly all actives have a fitted effect of over 35% in size); conditions: Karpas25 myeloma viability, CellTiter-Glo ATP, 48 h; viability (% of control): at 45.8 µM (top of the series)
Summary of the method: as §1

[4] = Quantitative High-Throughput drug screen in 47 multiple myeloma cell lines against the NCATS MIPE library collection: KMS12BM_JCRB cell viability assay (AID 1918971); note: nearly all actives have a fitted effect of over 35% in size
Summary of the method: (§2)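 qHTS of the MIPE 4.0 collection: 500 myeloma cells/well, 48 h drug exposure at 37C in 5% CO2, then CellTiter-Glo for 5 min at room temperature before luminescence reading.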

[5] = Quantitative High-Throughput drug screen in 47 multiple myeloma cell lines against the NCATS MIPE library collection: KMS12PE_JCRB cell viability assay (AID 1918972); conditions: KMS12PE myeloma viability, CellTiter-Glo ATP, 48 h; viability: at 45.8 µM (top of the series); note: nearly all actives have a fitted effect of over 30% in size;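 for viability: 100% = DMSO only wells and 0% = wells with media alone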
Summary of the method: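 Approved and investigational drugs from MIPE 4.0 were added by pin tool to 500 cells per well. After 48 hours at 37C, ATP-based CellTiter-Glo luminescence indicated remaining viability.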

[6] = Quantitative High-Throughput drug screen in 47 multiple myeloma cell lines against the NCATS MIPE library collection: KMS20_JCRB cell viability assay (AID 1918973); conditions: CellTiter-Glo ATP, 48 h; viability (% of DMSO): at 45.8 µM (top of the series); note: nearly all actives have a fitted effect of over 45% in size
Summary of the method: as §1

[7] = Quantitative High-Throughput drug screen in 47 multiple myeloma cell lines against the NCATS MIPE library collection: KMS26_JCRB cell viability assay (AID 1918975); conditions: KMS26 myeloma cells viability, CellTiter-Glo ATP, 48 h; viability (% of DMSO): at 45.8 µM (top of the series); note: nearly all actives have a fitted effect of over 45% in size;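 for viability (% of DMSO): 100% = DMSO-treated wells and 0% = wells with media only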
Summary of the method: as §2

[8] = Quantitative High-Throughput drug screen in 47 multiple myeloma cell lines against the NCATS MIPE library collection: MMM1_PLB cell viability assay (AID 1918976); note: nearly all actives have a fitted effect of over 35% in size
Summary of the method: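 MIPE 4.0 approved/investigational drugs; 500 cells/well; 48 h 37 °C humidified 5% CO2; CTG luminescence readout; DMSO = 100%, media = 0% viability.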

[9] = Quantitative High-Throughput drug screen in 47 multiple myeloma cell lines against the NCATS MIPE library collection: KMS27_JCRB cell viability assay (AID 1918970); conditions: KMS27 myeloma cells, CellTiter-Glo ATP viability, 48 h; viability (% of DMSO): at 45.8 µM (top of the series) unless noted; note: nearly all actives have a fitted effect of over 30% in size;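 for viability (% of DMSO): 100% = DMSO-only wells and 0% = media-only wells without cells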
Summary of the method: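 Viability inhibition screen, 48 h compound exposure, luminescent ATP read-out.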

[10] = Quantitative High-Throughput drug screen in 47 multiple myeloma cell lines against the NCATS MIPE library collection: KMS21BM_JCRB cell viability assay (AID 1918974); conditions: ATP luminescence, 48 h; viability: at 45.8 µM (top of the series) unless noted
Summary of the method: as §1
Potency is the fitted concentration of half-maximal effect.

O=C(c1cc(Cc2n[nH]c(=O)c3ccccc23)ccc1F)N1CCN(C(=O)C2CC2)CC1
inactive: Potency [4]
inconclusive: Potency [1] 20.9 µM [cytotoxic, single point] | Potency [2] 14.8 µM [cytotoxic, partial curve] | Potency [3] 18.7 µM [cytotoxic, partial curve] | Potency [5] 23.5 µM [cytotoxic, single point] | Potency [6] 29.6 µM [cytotoxic, single point] | Potency [7] 0.0033 µM [cytotoxic, full curve, poor fit] | Potency [8] 0.0105 µM [rising, full curve]

C[C@H](CCC(=O)O)[C@H]1CCC2C3C[C@H](O)[C@@H]4C[C@H](O)CC[C@]4(C)C3CC[C@@]21C (stereo partly drawn)
inconclusive: Potency [1] 0.0012 µM [cytotoxic, full curve, poor fit] | Potency [3] 0.935 µM [cytotoxic, partial curve, poor fit] | Potency [9] 1.87 µM [cytotoxic, full curve, poor fit] | Potency [4] 18.7 µM [cytotoxic, partial curve, poor fit] | Potency [10] 7.43 µM [rising, full curve]
active: Potency [8] 0.833 µM
inactive: Potency [2] | Potency [5] | Potency [6]

COC1=C(OC)C(=O)C(CC=C(C)CCC=C(C)CCC=C(C)CCC=C(C)CCC=C(C)CCC=C(C)CCC=C(C)CCC=C(C)CCC=C(C)CCC=C(C)C)=C(C)C1=O
inactive: Potency [2] | Potency [3] | Potency [9] | Potency [5] | Potency [7]
inconclusive: Potency [1] 0.743 µM [cytotoxic, full curve, poor fit] | Potency [4] 0.0013 µM [rising, full curve, poor fit] | Potency [10] 0.105 µM [cytotoxic, full curve, poor fit] | Potency [8] 0.0066 µM [rising, full curve, poor fit]

COc1cccc2c1C(=O)c1c(O)c3c(c(O)c1C2=O)C[C@@](O)(C(=O)CO)C[C@H]3O[C@H]1C[C@H](N)[C@H](O)[C@H](C)O1
active: Potency [1] 0.132 µM | Potency [2] 0.372 µM | Potency [9] 0.743 µM | Potency [4] 0.166 µM | Potency [6] 0.0526 µM | Potency [7] 0.296 µM
inconclusive: Potency [10] 37.2 µM [rising, partial curve, poor fit]

OC1CCC(Nc2ncc3nc(Nc4c(F)cc(F)cc4F)n([C@@H]4CCOC4)c3n2)CC1 (stereo partly drawn)
active: Potency [10] 4.69 µM
inconclusive: Potency [1] 18.7 µM [cytotoxic, partial curve, poor fit] | Potency [2] 20.9 µM [cytotoxic, single point] | Potency [3] 23.5 µM [cytotoxic, partial curve] | Potency [6] 37.2 µM [cytotoxic, partial curve, poor fit] | Potency [8] 0.0053 µM [rising, full curve]
inactive: Potency [7]

O=c1n(CCCN2CCN(c3cccc(Cl)c3)CC2)nc2ccccn12
inconclusive: Potency [1] 33.2 µM [cytotoxic, single point] | Potency [3] 26.4 µM [cytotoxic, partial curve, poor fit] | Potency [4] 0.0066 µM [rising, full curve, poor fit] | Potency [5] 20.9 µM [cytotoxic, single point] | Potency [8] 0.0042 µM [rising, full curve, poor fit]
inactive: Potency [2] | Potency [9] | Potency [6] | Potency [7]

O=C(Nc1cccc(C(F)(F)F)c1)Nc1cc(S(=O)(=O)NC2CC2)ccc1-c1ccsc1
inconclusive: Potency [1] 5.9 µM [cytotoxic, partial curve, poor fit] | Potency [2] 23.5 µM [cytotoxic, partial curve] | Potency [9] 0.0017 µM [cytotoxic, full curve, poor fit] | Potency [4] 11.8 µM [cytotoxic, partial curve, poor fit] | Potency [6] 33.2 µM [cytotoxic, single point] | Potency [10] 33.2 µM [rising, partial curve, poor fit]

CCN(CC)CCCC(C)Nc1ccnc2cc(Cl)ccc12 (stereo not drawn)
inconclusive: Potency [3] 20.9 µM [cytotoxic, single point] | Potency [9] 0.418 µM [cytotoxic, full curve, poor fit] | viability (% of DMSO) [6] 77.7% [cytotoxic] | Potency [10] 0.209 µM [cytotoxic, full curve, poor fit] | Potency [8] 0.0074 µM [rising, full curve, poor fit]
inactive: Potency [1] | Potency [2] | Potency [4] | Potency [7]

CC(C)N(CC[C@H](c1ccccc1)c1cc(CO)ccc1O)C(C)C
inactive: Potency [3] | Potency [4] | Potency [5] | Potency [7]
inconclusive: Potency [1] 20.9 µM [cytotoxic, single point] | Potency [2] 0.0148 µM [rising, full curve, poor fit] | Potency [6] 9.35 µM [rising, full curve, poor fit] | Potency [10] 8.33 µM [cytotoxic, full curve, poor fit] | Potency [8] 0.0166 µM [rising, full curve, poor fit]

Oc1cc2c(cc1O)C1c3ccc(O)c(O)c3OCC1(O)C2 (stereo not drawn)
inconclusive: Potency [1] 1.66 µM [cytotoxic, full curve, poor fit] | Potency [3] 13.2 µM [cytotoxic, partial curve] | Potency [6] 0.0083 µM [rising, full curve, poor fit] | Potency [10] 0.332 µM [cytotoxic, full curve, poor fit] | Potency [8] 33.2 µM [cytotoxic, single point]
inactive: Potency [2] | Potency [4]

CNc1nc(-c2ccc3c(N)n[nH]c3c2)cc(N2C[C@@H](C(=O)NC3CCCCC3)CC[C@@H]2C)n1
inconclusive: Potency [1] 0.526 µM [cytotoxic, partial curve, poor fit] | Potency [2] 20.9 µM [cytotoxic, partial curve] | Potency [4] 33.2 µM [cytotoxic, single point] | Potency [5] 18.7 µM [cytotoxic, partial curve] | Potency [10] 11.8 µM [cytotoxic, partial curve, poor fit] | Potency [7] 14.8 µM [cytotoxic, partial curve, poor fit] | Potency [8] 14.8 µM [cytotoxic, partial curve]
active: Potency [9] 10.5 µM

NCCCC(O)(P(=O)(O)O)P(=O)(O)O
active: Potency [3] 16.6 µM
inactive: Potency [8]
inconclusive: Potency [1] 7.43 µM [cytotoxic, partial curve, poor fit] | Potency [2] 1.32 µM [cytotoxic, partial curve, poor fit] | Potency [4] 0.209 µM [cytotoxic, full curve, poor fit] | Potency [10] 0.0083 µM [rising, full curve, poor fit]

C#Cc1cccc(Nc2ncnc3cc(OCCOC)c(OCCOC)cc23)c1
inconclusive: Potency [1] 1.18 µM [cytotoxic, full curve, poor fit] | Potency [2] 1.66 µM [cytotoxic, full curve] | Potency [3] 11.8 µM [cytotoxic, partial curve] | Potency [10] 37.2 µM [rising, partial curve] | Potency [7] 20.9 µM [cytotoxic, single point]
active: Potency [5] 2.09 µM | Potency [8] 0.59 µM

N=C(N)c1ccc(OCCCCCOc2ccc(C(=N)N)cc2)cc1
active: Potency [1] 16.6 µM | Potency [3] 2.96 µM | Potency [6] 10.5 µM
inconclusive: Potency [2] 6.62 µM [cytotoxic, partial curve] | Potency [10] 33.2 µM [rising, partial curve] | Potency [7] 1.48 µM [cytotoxic, full curve, poor fit]

Two records drawn at random from those above, as already listed:
C#Cc1cccc(Nc2ncnc3cc(OCCOC)c(OCCOC)cc23)c1
inconclusive: Potency [1] 1.18 µM [cytotoxic, full curve, poor fit] | Potency [2] 1.66 µM [cytotoxic, full curve] | Potency [3] 11.8 µM [cytotoxic, partial curve] | Potency [10] 37.2 µM [rising, partial curve] | Potency [7] 20.9 µM [cytotoxic, single point]
active: Potency [5] 2.09 µM | Potency [8] 0.59 µM

Oc1cc2c(cc1O)C1c3ccc(O)c(O)c3OCC1(O)C2 (stereo not drawn)
inconclusive: Potency [1] 1.66 µM [cytotoxic, full curve, poor fit] | Potency [3] 13.2 µM [cytotoxic, partial curve] | Potency [6] 0.0083 µM [rising, full curve, poor fit] | Potency [10] 0.332 µM [cytotoxic, full curve, poor fit] | Potency [8] 33.2 µM [cytotoxic, single point]
inactive: Potency [2] | Potency [4]

Further records

Cc1ccc(S(=O)(=O)Nc2cc(Cl)ccc2C(=O)Nc2nc(-c3ccccc3)cs2)cc1
inconclusive: Potency [2] 9.35 µM [cytotoxic, single point] | Potency [9] 10.5 µM [cytotoxic, single point] | Potency [6] 11.8 µM [cytotoxic, full curve, poor fit] | Potency [10] 29.6 µM [rising, partial curve, poor fit]
active: Potency [1] 18.7 µM | Potency [4] 16.6 µM

C[N+](C)([O-])CCNc1ccc(NCC[N+](C)(C)[O-])c2c1C(=O)c1c(O)ccc(O)c1C2=O
active: Potency [4] 18.7 µM
inconclusive: Potency [1] 0.0118 µM [rising, full curve, poor fit] | Potency [6] 0.0013 µM [cytotoxic, full curve, poor fit] | Potency [7] 1.32 µM [cytotoxic, partial curve, poor fit] | Potency [8] 23.5 µM [cytotoxic, single point]
inactive: Potency [2] | Potency [3] | Potency [10]

CC1(CN2CCC(n3c(=O)[nH]c4ccccc43)CC2)OCc2ccccc2-n2cccc21 (stereo not drawn)
inactive: Potency [5]
inconclusive: Potency [1] 74.3 µM [cytotoxic, partial curve, poor fit] | Potency [9] 0.296 µM [cytotoxic, partial curve, poor fit] | Potency [6] 16.6 µM [cytotoxic, partial curve, poor fit] | Potency [10] 29.6 µM [rising, partial curve]
active: Potency [2] 8.33 µM | Potency [4] 16.6 µM
